From article PMC8607621
No constants are given. Whether binding was seen depends on the method and setting. In cells and extracts the contact can be indirect. Some entries that bind do so weakly or less than the wild type.

Amino acid sequences for entries named in this document (tags omitted).
UniProt P48431: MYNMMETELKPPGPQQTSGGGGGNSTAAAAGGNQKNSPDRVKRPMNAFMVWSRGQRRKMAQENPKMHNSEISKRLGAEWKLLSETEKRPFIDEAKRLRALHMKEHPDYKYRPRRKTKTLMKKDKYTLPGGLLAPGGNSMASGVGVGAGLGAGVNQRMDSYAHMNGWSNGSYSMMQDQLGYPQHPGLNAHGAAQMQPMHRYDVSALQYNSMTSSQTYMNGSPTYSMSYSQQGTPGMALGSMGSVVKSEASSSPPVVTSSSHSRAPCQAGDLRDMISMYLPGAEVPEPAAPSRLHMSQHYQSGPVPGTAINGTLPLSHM

Target: SOX2 (human (endogenous in HEK293E)) (UniProt P48431)
Test: co-IP; lysates of HEK293E cells transfected with SLUG; buffer 10 mM HEPES pH 8.0, 150 mM NaCl, 0.1 mM EDTA, 20% glycerol, 0.2% NP-40; immunoprecipitated with anti-SOX2 at 4 °C, TrueBlot Anti-Mouse Ig IP beads; immunoblot with anti-SLUG and anti-SOX2

B1: SLUG (SNAI2) (protein, UniProt O43623 1-268)
chain: MPRSFLVKKHFNASKKPNYSELDTHTVIISPYLYESYSMPVIPQPEILSSGAYSPITVWTTAAPFHAQLPNGLSPLSGYSSSLGRVSPPPPSDTSSKDHSGSESPISDEEERLQSKLSDPHAIEAEKFQCNLCNKTYSTFSGLAKHKQLHCDAQSRKSFSCKYCDKEYVSLGALKMHIRTHTLPCVCKICGKAFSRPWLLQGHIRTHTGEKPFSCPHCNRAFADRSNLRAHLQTHSDVKKYQCKNCSKTFSRMSLLHKHEESGCCVAH
binding: binds
